Assay results as given in US20250213183A1, “SYSTEM AND METHOD OF MONITORING NOCICEPTION AND ANALGESIA DURING ADMINISTRATION OF GENERAL ANESTHESIA” (The General Hospital Corporation, priority 2022, published 2025).

Conditions: single subject, forehead sensor, patient remains unconscious; FIG. 6C

CCN(CC)CC(=O)Nc1c(C)cccc1C [lidocaine]
EDA SCR after lidocaine infusion is stopped, highest levels: approximately 35 micro-Siemens
